From PMC8531669, “Quantitative proteomics identifies the universally conserved ATPase Ola1p as a positive regulator of heat shock response in Saccharomyces cerevisiae” (The Journal of Biological Chemistry, 2021)
These are yes or no findings as the source states them, for the method shown.

Molecular target: Ola1p (S. cerevisiae) (UniProt P38219)
Assay: condition: only at temperatures close to 25 °C (10 μM Ola1p); dynamic light scattering; 10 μM (0.5 mg/ml) Ola1p in 20 mM PIPES pH 7.0, 100 mM KCl, 1 mM TCEP; temperature ramp 0.3 °C/min from 20 °C; read at temperatures close to 25 °C; both purified

B1: Ola1p (natural protein, S. cerevisiae, UniProt P38219 1-394, looked up)
chain: MPPKKQVEEKKVLLGRPGNNLKAGIVGLANVGKSTFFQAITRCPLGNPANYPFATIDPEEARVIVPSPRFDKLCEIYKKTASEVPAHLTVYDIAGLTKGASAGEGLGNAFLSHIRSVDSIYQVVRCFDDAEIIHVEGDVDPVRDLEIINQELRLKDIEFAQKALEGAEKIAKRGGQSLEVKQKKEEMDLITKIIKLLESGQRVANHSWTSKEVEIINSMFLLTAKPCIYLINLSERDYIRKKNKHLLRIKEWVDKYSPGDLIIPFSVSLEERLSHMSPEDAEEELKKLQTISALPKIITTMRQKLDLISFFTCGPDEVREWTIRRGTKAPQAAGVIHNDLMNTFILAQVMKCEDVFEYKDDSAIKAAGKLMQKGKDYVVEDGDIIYFRAGAGKN
notes: Ola1p (Obg-like ATPase 1), S. cerevisiae, systematic name Ybr025c; The methods say that the MBP tag was cleaved with Precision protease; also called Ybr025c; MBP-Ola1p (before cleavage); source: insect cells (baculovirus expression system), purified (amylose resin, size-exclusion chromatography); not shown: MBP, N-terminal, cleaved
binding: no binding
